No constants are given. Whether binding was seen depends on the method and setting. Some entries that bind do so weakly or less than the wild type.
T1: Syc2039 (Synpcc7942_2039) (Synechococcus elongatus PCC 7942) (UniProt Q31LK0)
T1 sequence: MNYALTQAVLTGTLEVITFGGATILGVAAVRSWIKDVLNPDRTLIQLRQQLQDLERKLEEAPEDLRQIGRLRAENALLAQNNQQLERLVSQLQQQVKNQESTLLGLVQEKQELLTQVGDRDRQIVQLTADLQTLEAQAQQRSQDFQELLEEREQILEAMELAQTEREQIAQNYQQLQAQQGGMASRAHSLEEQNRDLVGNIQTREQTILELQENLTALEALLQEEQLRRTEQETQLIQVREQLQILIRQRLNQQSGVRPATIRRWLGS


Key:
[1] = molecular target: T1, Syc2039 (Synpcc7942_2039) (Synechococcus elongatus PCC 7942); assay: two-hybrid; BACTH (Euromedex) in E. coli BTH101; C- and N-terminal fusions to T25 or T18; beta-galactosidase assays (Miller units) from three colonies, grown over night at 30 °C or 2 d at 20 °C
[2] = molecular target: HmpFSyc (Synpcc7942_1139) (Synechococcus elongatus PCC 7942) (UniProt Q31P50); assay: as above

Binder	binding [1]	binding [2]
HmpFSyc (Synpcc7942_1139) (protein, UniProt Q31P50 1-556) MLYLAEVGKRGGLFGGNKVEFRLIAFQRPDEGWQVLPEEEVLASDKTCDFSPGALVLLDLNNSRQVQRIQEATQRLLGFLREFSRLQERYRAQEAEVEQWKESLSIQSQELSRRQQEFENRQDQLQQLQAELFQLEEQKQEALAIQQQADALRAELDRRDRELKEAWQELEIQRQSFSSQPFGAVAFAPETQAAIAQLEQQIANWQNDDTVLAELSNKVTAAQQDLQSRIASLTNPDQPDVGNLENLQQALQEQRRQFQTAHLEWMSQQARLEQDKHQLSEEQTLLAGLEQRRRAIAQACQLIHALTGEANRSELEALPLEELQERVAAVQRDYDRIYSFVNDQEEELRLETADLEKLRANLEQANELERLSLEGELIEAEQRCQLLDESLVAQRLIAQERLTVLQQYQQVLEGRQSGTPIAPEVDLSELRSLLDRELPDLDGLIANVQARVEKLQEDVATIEGGIQAKADRVYRLKETVESTEEKWRNCELQVAEIRGYNQAIAACREWLEQIAQTYSEVYGAICTLAEQQRQQQADRAALQQQLAAISHQLIAA	binds	binds
Syc2039 (Synpcc7942_2039) (protein, UniProt Q31LK0 1-268) MNYALTQAVLTGTLEVITFGGATILGVAAVRSWIKDVLNPDRTLIQLRQQLQDLERKLEEAPEDLRQIGRLRAENALLAQNNQQLERLVSQLQQQVKNQESTLLGLVQEKQELLTQVGDRDRQIVQLTADLQTLEAQAQQRSQDFQELLEEREQILEAMELAQTEREQIAQNYQQLQAQQGGMASRAHSLEEQNRDLVGNIQTREQTILELQENLTALEALLQEEQLRRTEQETQLIQVREQLQILIRQRLNQQSGVRPATIRRWLGS	binds	
